The list shows a part of the results. Shown are side measurements of this screen, not its main read-out; they come without a call. The list favours compounds with an active or inconclusive main result. The note in brackets gives the kind of curve behind each potency; many fits are weak.
Assay: qHTS Assay for Lipid Storage Modulators in Drosophila S3 Cells;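 for cell number change: cells counted by Cell Tracker Red CMTPX staining in the red channel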
Settings: BODIPY lipid droplet fluorescence, 18-24 h; for cell number change: measured here: cell count max response, cells fed with added oleic acid
In short: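 Laser-scanning cytometry quantifies lipid droplet accumulation (500–530 nm total intensity; droplet/cell object ratio) in oleic acid-fed (400 uM added) Drosophila S3 cells treated with a concentration series. 20 uM Triacsin C defined 100% inhibition.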

[1] = measured here: lipid fluorescence (Fed channel) AC50, cells fed with added oleic acid
[2] = measured here: cell number channel AC50, cells fed with added oleic acid

Row | SMILES | cell number change [%] | AC50 [1] | AC50 [2]
1 | CC(c1cccs1)N(Cc1ccco1)C(=O)Nc1ccc(Cl)c(Cl)c1 (centres undefined) | -0.283 | 18.4 µM [rising, single point] | –
2 | CCc1nc2ccccc2c(C(=O)OC2CCOC2=O)c1C (centres undefined) | -23.8 | 14.6 µM [falling, partial curve, poor fit] | –
3 | Cc1ccc(C)c(NC(=O)c2cnn3ccccc23)c1 | 6.36 | 0.146 µM [rising, full curve, poor fit] | –
4 | CCN(CC)S(=O)(=O)c1ccc(N2CCOCC2)c(NC(=O)c2ccc(C#N)cc2)c1 | – | – | 0.116 µM [rising, single point]
5 | Cc1cccc(C(=O)NC2CCN(C(=O)N3CCOCC3)CC2)c1 | -56 | 3.66 µM [falling, full curve, poor fit] | 13 µM [falling, partial curve]
6 | Cc1ccc(C)c(S(=O)(=O)NCc2ccc(C(=O)N3CCC(Cc4ccccc4)CC3)cc2)c1 | -4.32 | – | 0.0206 µM [falling, partial curve, poor fit]
7 | Cc1cc(NC(=O)CN(C)C)c([N+](=O)[O-])cc1C | 17.1 | – | –
8 | C#CC1(NC(=O)NC(C)C)CCCCC1 | 38.4 | 4.61 µM [falling, single point] | 6.51 µM [falling, single point]
9 | Cc1nc2ccc(NC(=S)NCCCO)cc2nc1C | 22.4 | 16.4 µM [rising, partial curve, poor fit] | –
10 | CC(=O)NNc1nc2ccccc2s1 | 30.2 | – | 0.731 µM [rising, full curve, poor fit]
11 | COc1ccc(S(N)(=O)=O)cc1C(=O)OCCCOC(=O)c1cc(S(N)(=O)=O)ccc1OC | 13 | – | 0.164 µM [rising, full curve, poor fit]
12 | Nc1nc(SCC(=O)Nc2ccc(C(F)(F)F)cc2)[nH]c(=O)c1NC(=O)c1ccc(F)c(F)c1 | 62.9 | – | 25.9 µM [rising, single point]
13 | COc1cc(C2c3cc4c(cc3C(OC3OC5COC(c6cccs6)OC5C(O)C3O)C3COC(=O)C23)OCO4)cc(OC)c1O (centres undefined) | -50.1 | 23.1 µM [falling, partial curve] | 0.291 µM [falling, full curve]
14 | O=C(CSc1ccc2ccccc2c1)Nn1cnnc1 | -16.2 | 6.51 µM [falling, partial curve] | –
15 | Cc1ccc(CN2CC(C(=O)N(Cc3nnc(-c4ccccc4Cl)o3)C3CC3)CC2=O)cc1 (centres undefined) | -50 | – | 16.4 µM [falling, single point]
16 | Cc1ccc(-c2nc3ccccc3o2)cc1NC(=S)NC(=O)c1cc2ccccc2o1 | 1.26 | – | 6.51 µM [falling, single point]
17 | COc1cccc(NC(=O)CSc2nnc(CNC(=O)c3ccccc3F)o2)c1 | -15.6 | – | –
18 | CC(C)NC(=O)C(=O)NCc1ccccn1 | -23.9 | 0.82 µM [falling, full curve] | 0.13 µM [falling, full curve, poor fit]
19 | O=C(CSc1ccc(-c2ccc(F)cc2)nn1)N1CCOCC1 | 30.6 | – | 29.1 µM [rising, single point]
20 | Nc1ccccc1C(=O)Nc1cccc2ccccc12 | -13.7 | – | –
21 | CCC(NC(=S)NCc1ccc(F)cc1)c1ccccc1 (centres undefined) | – | 2.06 µM [rising, partial curve] | –

Row | SMILES | cell number change [%] | AC50 [1] | AC50 [2]
22 | COC(=O)c1cccc(NC(=O)c2cc(OC)c(OC)c(OC)c2Br)c1 | – | 3.26 µM [rising, single point] | 6.51 µM [falling, single point]
23 | NS(=O)(=O)c1ccc(NC(=O)c2ccc3c(c2)CCN3S(=O)(=O)c2ccccc2)cc1 | -19.9 | 4.61 µM [falling, partial curve] | –
24 | O=C(CCn1nc(-c2ccc(Cl)cc2)c2ccccc2c1=O)NCC1CCCO1 (centres undefined) | 58.6 | – | 29.1 µM [rising, single point]
25 | COc1ccc(C(=O)N2CCC(C(=O)NC3CC3)CC2)cc1 | 1.71 | 29.1 µM [rising, single point] | –
26 | CC(C)C(=O)N1CCN(S(=O)(=O)c2ccc3ccccc3c2)CC1 | – | 3.26 µM [falling, full curve] | –
27 | O=C1CSC(c2ccco2)N1 (centres undefined) | -1.35 | 16.4 µM [falling, single point] | –
28 | N#Cc1ccc(C23CC4(C2)[C@H](CN(Cc2ccc(-c5ccccc5)cc2)[C@@H]4c2ccccc2)C3c2ccc(C(F)(F)F)cc2)cc1 (some centres undefined) | 37 | 2.59 µM [rising, full curve] | 2.59 µM [rising, full curve]
29 | CCOC(=O)CNS(=O)(=O)CCN1C(=O)c2ccccc2C1=O | 4.94 | – | –
30 | Cc1ccc2[nH]c(=O)c(CNC(C)(C)C)cc2c1 | -35.8 | 18.4 µM [falling, partial curve] | 32.6 µM [falling, single point]
31 | Cc1ccc2oc(C(=O)N3CCN(CCO)CC3)c(C)c2c1 | -25.2 | 29.1 µM [rising, single point] | –
32 | CSc1nnc(NC(=O)c2nc(S(=O)(=O)Cc3ccccc3)ncc2Cl)s1 | -20.8 | 2.31 µM [falling, full curve] | 2.31 µM [falling, partial curve]
33 | COc1cc(C(=O)NCCNC(=O)c2cc(OC)c(C)c(OC)c2)cc(OC)c1C | 25.8 | 25.9 µM [falling, single point] | –
34 | COP(=O)(OC)C(Nc1ccc([N+](=O)[O-])cc1)c1ccccc1 (centres undefined) | -0.747 | – | 0.731 µM [falling, full curve]
35 | N#C/C(=C\c1cn(-c2ccccc2)nc1-c1cccnc1)c1nnc2n1CCCCC2 | 99 | 0.92 µM [rising, partial curve] | 0.731 µM [rising, full curve]
36 | Cc1ccccc1COC(=O)CCCC1=NS(=O)(=O)c2ccccc2N1 | 1.32 | – | –
37 | COC(=O)[C@H](CCSC)NC(=O)Nc1ccc(OC)c(Cl)c1 | – | 0.0164 µM [rising, partial curve] | 0.461 µM [falling, partial curve, poor fit]
38 | O=C(c1cc2ccccc2o1)N1CCN(Cc2ccc3c(c2)OCO3)CC1 | -9.54 | – | –
39 | Cc1ccc2nc(-c3cccc(S(=O)(=O)N4CCCC4)c3)cn2c1 | 12.8 | – | –
40 | O=C(NCc1cccnc1)c1ccc(-c2cc(Cl)ccc2Cl)o1 | -2.53 | 32.6 µM [falling, single point] | –
41 | CC(OC(=O)CNC(=O)c1ccccc1)C(=O)Nc1ccc(S(=O)(=O)N2CCOCC2)cc1 (centres undefined) | 36 | – | 29.1 µM [rising, single point]
42 | O=S(=O)(Cc1ccc(Cl)cc1)N1CCN(Cc2ccccc2)CC1 | -103 | 29.1 µM [falling, partial curve] | –

Quoted from above, entries 26 to 37
Row | SMILES | cell number change [%] | AC50 [1] | AC50 [2]
26 | CC(C)C(=O)N1CCN(S(=O)(=O)c2ccc3ccccc3c2)CC1 | – | 3.26 µM [falling, full curve] | –
27 | O=C1CSC(c2ccco2)N1 (centres undefined) | -1.35 | 16.4 µM [falling, single point] | –
28 | N#Cc1ccc(C23CC4(C2)[C@H](CN(Cc2ccc(-c5ccccc5)cc2)[C@@H]4c2ccccc2)C3c2ccc(C(F)(F)F)cc2)cc1 (some centres undefined) | 37 | 2.59 µM [rising, full curve] | 2.59 µM [rising, full curve]
29 | CCOC(=O)CNS(=O)(=O)CCN1C(=O)c2ccccc2C1=O | 4.94 | – | –
30 | Cc1ccc2[nH]c(=O)c(CNC(C)(C)C)cc2c1 | -35.8 | 18.4 µM [falling, partial curve] | 32.6 µM [falling, single point]
31 | Cc1ccc2oc(C(=O)N3CCN(CCO)CC3)c(C)c2c1 | -25.2 | 29.1 µM [rising, single point] | –
32 | CSc1nnc(NC(=O)c2nc(S(=O)(=O)Cc3ccccc3)ncc2Cl)s1 | -20.8 | 2.31 µM [falling, full curve] | 2.31 µM [falling, partial curve]
33 | COc1cc(C(=O)NCCNC(=O)c2cc(OC)c(C)c(OC)c2)cc(OC)c1C | 25.8 | 25.9 µM [falling, single point] | –
34 | COP(=O)(OC)C(Nc1ccc([N+](=O)[O-])cc1)c1ccccc1 (centres undefined) | -0.747 | – | 0.731 µM [falling, full curve]
35 | N#C/C(=C\c1cn(-c2ccccc2)nc1-c1cccnc1)c1nnc2n1CCCCC2 | 99 | 0.92 µM [rising, partial curve] | 0.731 µM [rising, full curve]
36 | Cc1ccccc1COC(=O)CCCC1=NS(=O)(=O)c2ccccc2N1 | 1.32 | – | –
37 | COC(=O)[C@H](CCSC)NC(=O)Nc1ccc(OC)c(Cl)c1 | – | 0.0164 µM [rising, partial curve] | 0.461 µM [falling, partial curve, poor fit]

Continuation.

Row | SMILES | cell number change [%] | AC50 [1] | AC50 [2]
43 | COc1cccc(NC(=O)CN(C)C(=O)CCC(=O)c2cc(C)sc2C)c1 | 54 | – | 20.6 µM [rising, single point]
44 | CN1CCN(C(CC(=O)Nc2cccc(O)c2)C(=O)O)CC1 (centres undefined) | 13.3 | 1.16 µM [falling, full curve] | 1.03 µM [falling, full curve]
45 | Nc1[nH]ncc1S(=O)(=O)c1ccccc1 | 25.9 | – | –
46 | c1ccc(Cn2c(NCc3ccco3)nc3ccccc32)cc1 | – | 0.651 µM [falling, full curve] | –
47 | O=C(O)COc1ccccc1/C=N/NC(=O)CSc1nnc(SCc2ccc(Cl)cc2)s1 | – | 0.517 µM [rising, full curve] | –
48 | COc1ccc(/C=C2\CCCC3C2=NN(C(=O)c2ccco2)C3c2ccc(OC)c(OC)c2)cc1OC (centres undefined) | -26.4 | 29.1 µM [falling, single point] | –
49 | COCCn1c(SCC(=O)NC2CCCC2)nc2ccccc2c1=O | 0.747 | 1.64 µM [rising, partial curve] | –
50 | CCOc1ccc(NC(=O)CN(C)C(=O)CSC(C)C(=O)Nc2cc(C)on2)cc1OCC (centres undefined) | – | 16.4 µM [rising, partial curve] | –
51 | COc1ccc(/C=C2/SC(=S)N(c3ccc(S(=O)(=O)Nc4nccs4)cc3)C2=O)cc1 | -8.71 | – | 0.731 µM [falling, single point]
52 | Cc1ccc(C)n1-c1nnc(N2CCC(C(=O)N3CCN(C)CC3)CC2)s1 | -4.03 | – | –
53 | O=C(CN1C(=O)COc2ccccc21)NCCCN1CCN(c2ccccc2F)CC1 | – | – | 6.51 µM [rising, single point]
54 | Brc1ccccc1/C=N/N1CCCCC1 | -32.2 | – | 20.6 µM [falling, partial curve]
55 | CS(=O)(=O)n1nc(OC(=O)c2cccc3ccccc23)cc1N | 5.17 | 4.11 µM [rising, single point] | –
56 | CCCc1cn(S(=O)(=O)c2ccc(OC)cc2OC)nc1N | 65.1 | 2.06 µM [rising, full curve] | 0.731 µM [rising, partial curve]
57 | O=c1[nH][nH]cc1C=Nc1ccccc1O | 103 | – | 0.00461 µM [rising, full curve, poor fit]
58 | CCOC(=O)Nc1ccc2c(COC(=O)CNS(=O)(=O)c3cccc(Br)c3)cc(=O)oc2c1 | 5.3 | – | –
59 | O=C(Nc1cc(Cl)ccc1O)C1CC(c2ccccc2Cl)=NO1 (centres undefined) | -25.3 | 6.51 µM [rising, partial curve] | –
60 | CCC1(c2ccccc2)NC(=O)N(CC(=O)Nc2ccc(Cl)c(S(=O)(=O)N3CCCCC3)c2)C1=O (centres undefined) | 23.7 | – | –
61 | CCOc1cc(NS(C)(=O)=O)c(OCC)cc1NC(=O)c1cccs1 | -12.4 | 2.06 µM [rising, partial curve] | –
